Data from PubChem BioAssay AID504842 (National Center for Advancing Translational Sciences (NCATS), 2011).
Screen size: about 330,000 compounds; about 100 (0.03%) were called active. The inconclusive results got no clear call from the source; some entries with a clear call stand among them for comparison. The call rests on the fitted dose curve; in most records, active means well fitted inhibition curve with a large enough effect; inconclusive means small, poorly fitted or top-dose-only effect; inactive means flat fitted curve, though single readings scatter. Potencies beside an inconclusive call are fits to weak or partial responses and may not hold up.

Tested on: Chaperonin Mm-Cpn (Methanococcus maripaludis)
Assay: Inhibitors of TCP-1 ring complex (TRiC) of Methanococcus maripaludis (MmCpn): qHTS; further: nearly all actives have a fitted effect of over 80% in size;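 on Potency: enzyme at 25 nM with ATP substrate at 10 µM during the reaction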
Conditions: purified Mm-Cpn ATPase, ADP Transcreener TR-FRET; series mostly up to 76.9 µM
Outline: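 Inhibition of chaperonin ATP hydrolysis is measured as reduced ADP production, detected by competitive TR-FRET in which signal falls with ADP. Final enzyme 25 nM and ATP 10 uM, reacted 30 min at 37°C.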
Potency means the concentration at half of the fitted maximal effect.

Potency, inconclusive:
COc1ccc(-c2nc(C)ncc2-c2csc(C)n2)c(O)c1 25.1 µM [inhibitor, single point]
O=C(Nc1nnc(Cc2ccccc2)s1)c1cnccn1 17.8 µM [inhibitor, single point]
O=C(Cn1ccc(=O)[nH]c1=O)Nc1ccc(C(=O)O)c(O)c1 100 µM [inhibitor, partial curve, poor fit]
Cc1cccc(-n2ccnc2SCC(=O)Nc2nccs2)c1 10 µM [inhibitor, single point]
O=C(NNc1ccc([N+](=O)[O-])cc1[N+](=O)[O-])c1ccco1 17.8 µM [inhibitor, single point]
Nc1c(C(=O)NCc2ccccc2)nnn1Cc1ccccc1 17.8 µM [inhibitor, single point]
O=C(Nc1ccc2oc(-c3ccncc3)nc2c1)c1ccccc1F 100 µM [inhibitor, partial curve, poor fit]
COc1ccc(CNc2oc(Cc3cccc4ccccc34)nc2C#N)cc1 100 µM [inhibitor, single point]
CCOC(=O)n1c(=O)n(Cc2ccc(Cl)c(Cl)c2)c2ccccc21 44.7 µM [inhibitor, single point]
Cc1ccc(N2CC(C(=O)Nc3ccc(S(=O)(=O)Nc4nccs4)cc3)CC2=O)cc1 (stereo not given) 8.91 µM [inhibitor, single point]
CCNC(=O)Nc1cc(S(=O)(=O)Nc2ccc(OC)cc2)ccc1N1CCOCC1 22.4 µM [inhibitor, single point]
CCc1ccc2[nH]c(C(=O)Nc3ccc(Br)c(C)n3)cc2c1 112 µM [inhibitor, single point]
CCN(c1ccccc1)S(=O)(=O)c1ccc(Oc2ccc(-n3ccnc3)cc2)nc1 501 µM [inhibitor, partial curve, poor fit]
Cc1ccccc1C(=O)N=c1ccn(-c2nc3ccccc3nc2NS(=O)(=O)c2ccc(F)cc2)cc1 79.4 µM [inhibitor, partial curve]
Cc1ccc(C2Nc3ccccc3C(=O)N2CCN2CCNC2=O)cc1 (stereo not given) 63.1 µM [inhibitor, single point]
CN(C(=O)COC(=O)c1ccc(S(=O)(=O)N2CCOCC2)cc1)C1CCCCC1 79.4 µM [inhibitor, single point]
O=C(NN=C1CCCC1)c1ccc(Br)cc1 50.1 µM [inhibitor, single point]
Cc1cc(Cl)ccc1NC(=S)NCCCO 20 µM [inhibitor, single point]
Cc1cc(SCC(=O)Nc2cccc(S(=O)(=O)N3CCOCC3)c2)nc2ccccc12 100 µM [inhibitor, single point]
O=C(Nc1ccc2nn(-c3ccccc3)nc2c1)c1ccc(Br)o1 89.1 µM [inhibitor, single point]
O=C(OCC(=O)N1CCCC1)c1ccc(OC(F)(F)F)cc1 11.2 µM [inhibitor, single point]
CCn1ccnc1CNC(=O)c1ccc2oc(C(C)C)nc2c1 28.2 µM [inhibitor, single point]
Cc1ccc(C2CC(c3ccccc3)=NN2C(=S)Nc2ccccc2)o1 (stereo not given) 79.4 µM [inhibitor, partial curve, poor fit]
CCn1c(C)nc2cc(C(=O)NNC(=S)Nc3ccccc3OC)ccc21 100 µM [inhibitor, single point]
O=C(NCC1COc2ccccc2O1)C1C2C=CC3(CN(Cc4cccs4)C(=O)C13)O2 (stereo not given) 25.1 µM [inhibitor, single point]
O=C1C(Cl)=C(NC(=O)c2ccccc2)C(=O)C(Cl)=C1NC(=O)c1ccccc1 89.1 µM [inhibitor, single point]

Quoted from the listing (3 entries):
Potency, inconclusive:
Cc1ccc(C2Nc3ccccc3C(=O)N2CCN2CCNC2=O)cc1 (stereo not given) 63.1 µM [inhibitor, single point]
CN(C(=O)COC(=O)c1ccc(S(=O)(=O)N2CCOCC2)cc1)C1CCCCC1 79.4 µM [inhibitor, single point]
O=C(NN=C1CCCC1)c1ccc(Br)cc1 50.1 µM [inhibitor, single point]

Next part.

Potency, inactive:
COc1ccc(OCc2cc(C(=O)N3CCCCCC3)no2)c(Cl)c1
CC(C)(C)n1nnnc1C(c1ccccc1)N1CCc2ccccc2C1 (stereo not given)
Cc1ccc(NC(=O)Cn2ncn3c(cc4ccccc43)c2=O)c(C)c1
O=S(=O)(NCc1ccccc1)c1ccc(-c2cnc(C3CC3)o2)cc1
O=S(=O)(c1ccccc1Cl)N1CCC(Cc2ccccc2)CC1
Cc1ccc(C(=O)CSc2nc(N)cc(=O)[nH]2)cc1
S=c1nc(-c2ccccc2)[nH]c2ccc(Br)cc12
Cc1ccc(O)c(-c2cc(C(F)(F)F)[nH]n2)c1
N=c1c(C(=O)NCc2ccco2)cc2c(=O)n3ccccc3nc2n1Cc1ccccc1
Cc1ccc(NC(=O)C2COc3ccccc3O2)c(C)c1 (stereo not given)
Cc1nn(-c2nc3ccccc3s2)c(N)c1-c1ccccc1
COC(=O)c1[nH]c2ccc(C)cc2c1NC(=O)CCN1CCN(C2CCCCC2)CC1
Cc1ccc(C)c(NC(=S)c2ccccn2)c1
[O-]c1c[n+](-c2ccc(-[n+]3cc([O-])on3)cc2)no1
CCOC(=O)c1cc2c(ccn2C)n1CC(=O)N1C(C)CCCC1C (stereo not given)
O=C(/C=C/c1ccco1)Nc1nc(-c2ccc(F)c(F)c2)cs1
O=C(c1cc(F)ccc1F)N1CCC(N2CCC(C(=O)N3CCCC3)CC2)CC1
CCNC(=O)NC(=O)COC(=O)c1ccccc1SCC(=O)NC(=O)NCC
c1csc(-c2nn3cnnc3c3ccccc23)c1
O=C(NC1=NCCS1)c1cccc(OC(F)F)c1
CCOc1ccc(N2C(=O)CC(Cc3cc(C)cc(C)c3)C2=O)cc1 (stereo not given)
COc1cc(NC(=S)NC(=O)C(C)C)ccc1NC(=O)c1cc2ccccc2o1
c1ccc(C2=NNC(c3ccccn3)=NN2)nc1

Potency, active:
Cc1ccc2nc(-c3cccnc3SCC(=O)N3c4ccccc4CC3C)[nH]c2c1 (stereo not given) 50.1 µM
